This is an account of results in publication PMC10838660, “Artificial intelligence-powered discovery of small molecules inhibiting CTLA-4 in cancer” (BJC reports, 2024).

In the series the test system is CD45+ immune cells from MC38 tumors. Put plainly: Single-cell RNA and TCR sequencing of CD45+ tumor immune cells. Format: in vivo, hCTLA-4 mice. An excerpt:
Using another cohort of hCTLA-4 mice inoculated with MC38 cells, we treated animals (n = 5 per group) with ipilimumab, anti-PD-1, anti-PD-1 plus D11, D11 alone, or vehicle in the same dosages as used previously. Some animals’ tumors were collected approximately 10 days after the last treatment dose, whereas for the remaining animals, the tumors were allowed to grow (Supplementary Fig. S7). […] Single-cell suspensions from tumors were sorted to obtain CD45^+ immune cells, which were then subjected to single-cell RNA sequencing (scRNAseq) and TCR sequencing. Next, the immune cell populations were compared across the samples (Fig. 5b, c). […] Another interesting observation from the scRNAseq analysis was that the differential expression of membrane-type 1 matrix metalloproteinase, which is known for its role as a key regulator in cell migration in tissues, was associated with D11 treatment. This finding could lead to a possible new mechanism of action, besides macrophage recruitment, to drive the search for anticancer compounds.
We used the Gini and the 1-Pielou indexes to determine the clonotype distributions and the clonality of the TCR repertoire from the TCR sequencing data. […] CDR3 plays a dominant role in recognizing processed antigen peptides.
Tumors from CTLA-4-humanized MC38 syngeneic mice (n = 3–5 mice) were extracted for single-cell suspension using a gentleMACS Octo Dissociator (Miltenyi Biotec). The cells were stained with antimouse CD45 antibody (PE-Cy7, Clone 30-F11, Cat. 103114, Lot B354212) and sorted with a BD FACSAria II Cell Sorting Flow Cytometer. Library preparation of CD45^+ sorted cells for scRNAseq was performed using a 10X Genomics Chromium Single Cell 5′ Library & Gel Bead Reagent Kit. For TCR sequencing, a Chromium Single Cell V(D)J Enrichment Kit was used. The acquired scRNAseq reads from the 10X Genomics platform were aligned to a reference genome (mm10) using Cell Ranger (V.7.1, 10X Genomics) default parameters. The reads and cells were further filtered with Seurat (V.4.0.3) in R (V.4.1.0). Usually, measurements across datasets cannot be compared because of distinct factors that could influence cellular identities. Such factors, which include the sensitivity and accuracy of the methods used, can cause transcript abundance bias and lead to false negatives. Therefore, we employed an unsupervised strategy to anchor datasets together to facilitate integration and comparison across single-cell-sequenced samples [76]. This method allowed accurate cross-comparisons among samples because only specific subsets of cells with the same molecular features are compared to each other. First, to overcome the batch effect, we used a diagonalized canonical correlation analysis to reduce the dimensionality in the 5 treatment datasets of hCTLA-4 mice. Second, L2-normalization was applied to the canonical correlation vectors used to identify mutual nearest neighbors. Third, anchors (cell pairs) were identified by searching for mutual nearest neighbors in this shared low-dimensional representation. These anchors encode for the cellular relationships across datasets; subsequent integration analyses depend on these relationships. […] The clonality of the TCR repertoire was calculated as a 1-Pielou index value using the formula 1+ ∑(i=1 to n) (pi*ln(pi))/ln(n), where pi is the frequency of clone i for a sample of n unique clones; this metric was normalized to the number of unique clones and ranges from 0 to 1. […]

Turning to “ipilimumab: an anti-CTLA-4 antibody, first immune checkpoint blockade therapy to receive FDA approval”, the “% of total TCRs” value reads like this: (top TCR clone no. 1 of the group) 4.8%; (top TCR clone no. 2 of the group) 1.9%; (top TCR clone no. 3 of the group) 1.6%; (top TCR clone no. 4 of the group) 1.3%; (top TCR clone no. 5 of the group) 0.6%.
